# Article PMC10143413
# Amino acid sequences for entries named in this document (tags omitted). Residues count along the entry.
# UniProt P11974: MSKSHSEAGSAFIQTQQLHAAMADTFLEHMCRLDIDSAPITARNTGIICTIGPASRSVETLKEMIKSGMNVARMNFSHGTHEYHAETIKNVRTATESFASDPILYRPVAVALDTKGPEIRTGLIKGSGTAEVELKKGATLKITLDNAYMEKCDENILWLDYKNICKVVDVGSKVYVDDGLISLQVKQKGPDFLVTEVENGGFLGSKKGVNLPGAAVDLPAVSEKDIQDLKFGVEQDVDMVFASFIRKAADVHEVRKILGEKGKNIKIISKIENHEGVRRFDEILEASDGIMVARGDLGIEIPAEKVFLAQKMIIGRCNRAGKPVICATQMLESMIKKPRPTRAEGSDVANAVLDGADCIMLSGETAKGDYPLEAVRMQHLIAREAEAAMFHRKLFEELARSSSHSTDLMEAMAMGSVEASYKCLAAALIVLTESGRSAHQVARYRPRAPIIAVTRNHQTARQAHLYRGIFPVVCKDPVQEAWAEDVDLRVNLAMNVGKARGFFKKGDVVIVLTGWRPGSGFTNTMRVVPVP
# UniProt P63038, residues 27-573: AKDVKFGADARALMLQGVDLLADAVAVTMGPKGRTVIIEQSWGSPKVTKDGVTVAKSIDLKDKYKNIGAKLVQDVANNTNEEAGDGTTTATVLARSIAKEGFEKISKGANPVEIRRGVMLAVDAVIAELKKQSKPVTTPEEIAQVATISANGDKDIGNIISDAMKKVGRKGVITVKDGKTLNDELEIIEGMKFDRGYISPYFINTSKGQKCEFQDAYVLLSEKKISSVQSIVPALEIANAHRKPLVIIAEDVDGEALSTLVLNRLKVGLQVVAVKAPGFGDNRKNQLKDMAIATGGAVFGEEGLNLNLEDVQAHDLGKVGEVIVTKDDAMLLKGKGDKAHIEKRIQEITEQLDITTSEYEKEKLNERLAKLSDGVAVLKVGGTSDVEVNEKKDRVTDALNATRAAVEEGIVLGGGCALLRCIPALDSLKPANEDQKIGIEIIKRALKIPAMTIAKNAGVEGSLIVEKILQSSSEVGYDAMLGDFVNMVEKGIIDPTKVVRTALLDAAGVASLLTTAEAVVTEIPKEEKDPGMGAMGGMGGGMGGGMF
# UniProt Q9QUM9: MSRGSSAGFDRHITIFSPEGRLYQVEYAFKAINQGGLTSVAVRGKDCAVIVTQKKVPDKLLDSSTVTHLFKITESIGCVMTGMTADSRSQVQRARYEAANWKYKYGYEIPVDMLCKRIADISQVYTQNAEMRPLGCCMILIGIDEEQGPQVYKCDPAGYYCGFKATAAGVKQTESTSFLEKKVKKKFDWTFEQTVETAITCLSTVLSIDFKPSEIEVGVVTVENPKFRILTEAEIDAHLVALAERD
# UniProt P63101: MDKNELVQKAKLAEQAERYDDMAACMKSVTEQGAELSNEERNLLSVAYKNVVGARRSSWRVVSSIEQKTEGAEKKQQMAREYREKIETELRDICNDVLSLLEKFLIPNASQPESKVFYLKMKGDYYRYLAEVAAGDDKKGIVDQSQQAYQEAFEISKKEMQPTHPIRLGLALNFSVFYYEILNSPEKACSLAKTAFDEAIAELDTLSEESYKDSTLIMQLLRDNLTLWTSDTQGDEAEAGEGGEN
# UniProt P57780: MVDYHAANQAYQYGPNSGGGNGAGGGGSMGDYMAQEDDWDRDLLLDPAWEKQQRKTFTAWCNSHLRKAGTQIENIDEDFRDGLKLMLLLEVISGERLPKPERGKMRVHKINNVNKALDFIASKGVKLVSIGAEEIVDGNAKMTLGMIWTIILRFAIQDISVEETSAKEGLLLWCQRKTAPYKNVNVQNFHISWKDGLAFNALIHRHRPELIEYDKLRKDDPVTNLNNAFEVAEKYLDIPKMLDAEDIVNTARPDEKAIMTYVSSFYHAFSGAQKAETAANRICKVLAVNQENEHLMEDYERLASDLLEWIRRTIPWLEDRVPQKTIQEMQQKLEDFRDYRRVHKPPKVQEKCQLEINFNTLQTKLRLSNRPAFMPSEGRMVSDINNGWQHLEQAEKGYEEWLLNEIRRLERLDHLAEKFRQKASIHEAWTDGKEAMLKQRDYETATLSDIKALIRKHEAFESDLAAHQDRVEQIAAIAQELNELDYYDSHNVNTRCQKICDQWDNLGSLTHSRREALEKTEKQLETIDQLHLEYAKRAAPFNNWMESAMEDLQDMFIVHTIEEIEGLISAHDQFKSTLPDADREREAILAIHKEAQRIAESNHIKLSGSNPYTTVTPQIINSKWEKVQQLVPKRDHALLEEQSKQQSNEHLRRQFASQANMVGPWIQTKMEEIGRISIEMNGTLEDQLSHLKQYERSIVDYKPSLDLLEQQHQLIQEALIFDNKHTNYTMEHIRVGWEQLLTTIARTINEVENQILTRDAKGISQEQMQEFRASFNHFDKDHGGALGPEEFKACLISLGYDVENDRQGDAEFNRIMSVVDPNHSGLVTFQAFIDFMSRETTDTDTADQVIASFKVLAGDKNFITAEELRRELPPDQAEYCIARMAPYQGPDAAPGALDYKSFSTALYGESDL
# UniProt P63242: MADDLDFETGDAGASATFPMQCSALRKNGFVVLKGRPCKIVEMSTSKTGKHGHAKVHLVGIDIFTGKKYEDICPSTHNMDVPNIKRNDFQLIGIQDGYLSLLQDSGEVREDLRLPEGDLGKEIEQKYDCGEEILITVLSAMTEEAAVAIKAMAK
# UniProt P68372: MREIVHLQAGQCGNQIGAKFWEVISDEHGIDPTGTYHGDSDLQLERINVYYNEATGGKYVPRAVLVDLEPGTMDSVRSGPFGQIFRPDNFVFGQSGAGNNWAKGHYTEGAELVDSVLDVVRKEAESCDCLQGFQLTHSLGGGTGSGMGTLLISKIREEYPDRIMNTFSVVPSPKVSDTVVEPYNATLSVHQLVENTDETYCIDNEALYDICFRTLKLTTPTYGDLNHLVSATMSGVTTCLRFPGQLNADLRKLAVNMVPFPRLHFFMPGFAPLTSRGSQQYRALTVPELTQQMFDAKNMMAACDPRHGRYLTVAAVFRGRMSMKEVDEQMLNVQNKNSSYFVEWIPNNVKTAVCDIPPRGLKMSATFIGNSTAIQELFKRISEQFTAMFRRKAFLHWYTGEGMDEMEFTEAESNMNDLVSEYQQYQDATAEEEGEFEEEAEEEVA
# UniProt Q61937: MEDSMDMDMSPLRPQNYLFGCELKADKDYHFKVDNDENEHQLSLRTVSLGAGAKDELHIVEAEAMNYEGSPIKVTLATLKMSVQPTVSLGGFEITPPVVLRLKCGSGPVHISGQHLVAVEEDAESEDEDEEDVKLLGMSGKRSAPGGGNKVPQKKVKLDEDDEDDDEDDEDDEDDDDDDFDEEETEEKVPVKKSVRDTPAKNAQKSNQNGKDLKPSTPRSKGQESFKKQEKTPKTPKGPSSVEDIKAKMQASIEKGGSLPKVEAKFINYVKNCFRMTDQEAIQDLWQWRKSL
# No constants are given. Whether binding was seen depends on the method and setting. Binding seen in cells or lysates may run through a third protein. These calls come from enrichment with a bait or labelling near it, and not all partners need be listed.
# Target: Pyruvate kinase PKM1, purified from rabbit skeletal muscle (rabbit) (UniProt P11974)
# Test: affinity purification with mass spectrometry; rabbit muscle PKM1 immobilised on CNBr-activated Sepharose 4B; cleared Triton X-100 lysate of mouse brain homogenate (6 mg/mL protein) in 0.05 M potassium phosphate pH 7.4, overnight at 4 °C; washed with 100 volumes of buffer; eluted with 0.1 M glycine pH 2.8, 3 M NaCl; LC-MS/MS; only the target purified
row,Substance,binding
1,"60 kDa heat shock protein, mitochondrial (mouse brain) (from UniProt P63038 27-573)",binds
2,Heterogeneous nuclear ribonucleoprotein K (mouse brain) (from UniProt P61979 1-463),binds
3,Proteasome subunit alpha type-6 (mouse brain) (from UniProt Q9QUM9 1-246),binds
4,14-3-3 protein zeta/delta (mouse brain) (from UniProt P63101 1-245),binds
5,Alpha-actinin-4 (mouse brain) (from UniProt P57780 1-912),binds
6,Eukaryotic translation initiation factor 5A-1 (mouse brain) (from UniProt P63242 1-154),binds
7,Tubulin beta-4B chain (mouse brain) (from UniProt P68372 1-445),binds
8,Nucleophosmin (mouse brain) (from UniProt Q61937 1-292),binds
